Reference: PubChem BioAssay AID248 (DTP/NCI, 2004)
The list shows only some results of the screen, not a fair sample: it is rich in T/C values a quarter to a half above the control, in often repeated tests (any T/C) and in doses without a T/C. Other doses and runs of a compound stand elsewhere. T/C: endpoint of the treated group in % of that of the vehicle group. Some entries give survivors of the animals treated and no T/C: the source holds a T/C of zero for them, seemingly a mark for toxic or unscored doses. Some doses without a T/C left all or most animals alive at the check, yet need not have been tolerated: the source hardly ever lists a survival T/C far under the control, and the zero likely stands for such cases as well. Survivors were counted at the toxicity check, usually on the fifth day, unless a day is given; later deaths do not show. Schedules are NCI's codes, taken here to give the interval after Q, in days (D) or hours (H), and the number of doses after X. Some schedules carry Z or #; the key to these is not given. Some doses were run more than once; the results are listed from low to high. Where survival is the endpoint, the PubChem record calls one and a half times the control and up active, and a quarter to a half above the control has no call in these data; cut-offs in other NCI protocols can differ. Some T/C values are followed by the survivors on the day toxicity was checked, most often the fifth; without a count, all were alive then.

System: L1210 leukemia ip in BDF1 mice, survival T/C
Experiment: NCI In Vivo Anticancer Drug Screen. Data for tumor model L1210 Leukemia (intraperitoneal) in B6D2F1 (BDF1) mice
Conditions: T/C endpoint: mean survival time, higher T/C = longer survival
[1] = dose: 200.0 mg/kg/injection, schedule: Q01DX009 (ip), vehicle: water
[2] = dose: 400.0 mg/kg/injection, schedule: Q01DX009 (ip), vehicle: water
[3] = dose: 600.0 mg/kg/injection, schedule: Q01DX009 (ip), vehicle: water
[4] = dose: 750.0 mg/kg/injection, schedule: Q01DX Z (ip), vehicle: water
[5] = dose: 800.0 mg/kg/injection, schedule: Q01DX009 (ip), vehicle: water
[6] = dose: 400.0 mg/kg/injection, schedule: Q04DX003 (ip), vehicle: Klucel (hydroxypropylcellulose) (HPC)

## O=C(NO)c1ccncc1
dose: 200.0 mg/kg/injection, schedule: Q01DX005 (ip), vehicle: water
  survivor count: 6 of 6
dose: 200.0 mg/kg/injection, schedule: Q01DX005 (iv), vehicle: water
  survivor count: 1 of 6
[1]
  T/C: 101, 106, 107, 115 % of control
  survivor count: 6 of 6
dose: 200.0 mg/kg/injection, schedule: Q02DX005 (ip), vehicle: water
  survivor count: 6 of 6
dose: 267.0 mg/kg/injection, schedule: Q#B X027 (ip), vehicle: water
  T/C: 136 % of control
dose: 300.0 mg/kg/injection, schedule: Q01DX009 (ip), vehicle: water
  T/C: 125 % of control
dose: 335.0 mg/kg/injection, schedule: Q01DX Z (ip), vehicle: water
  T/C: 125 % of control
dose: 400.0 mg/kg/injection, schedule: Q01DX005 (ip), vehicle: water
  survivor count: 2 of 6
[2]
  T/C: 108, 110, 128, 135 % of control
  survivor count: 6 of 6
dose: 400.0 mg/kg/injection, schedule: Q01DX015 (ip), vehicle: water
  T/C: 133 % of control
dose: 400.0 mg/kg/injection, schedule: Q01DX Z (ip), vehicle: water
  T/C: 128 % of control [5 of 6 alive]
dose: 400.0 mg/kg/injection, schedule: Q02DX005 (ip), vehicle: water
  survivor count: 2 of 6
dose: 400.0 mg/kg/injection, schedule: Q02DX Z (ip), vehicle: water
  T/C: 126 % of control
dose: 450.0 mg/kg/injection, schedule: Q01DX015 (ip), vehicle: water
  T/C: 143 % of control
dose: 500.0 mg/kg/injection, schedule: Q01DX005 (iv), vehicle: water
  survivor count: 0 of 6
dose: 500.0 mg/kg/injection, schedule: Q01DX015 (ip), vehicle: water
  T/C: 136 % of control
dose: 500.0 mg/kg/injection, schedule: Q01DX Z (ip), vehicle: water
  T/C: 106, 127, 131, 145, 149 % of control
dose: 500.0 mg/kg/injection, schedule: Q02DX008 (ip), vehicle: water
  T/C: 126 % of control
dose: 600.0 mg/kg/injection, schedule: Q01DX005 (ip), vehicle: water
  survivor count: 0 of 6
[3]
  T/C: 108, 141, 153, 163, 165 % of control
  survivor count: 0 of 6
dose: 600.0 mg/kg/injection, schedule: Q01DX015 (ip), vehicle: water
  T/C: 135 % of control
dose: 600.0 mg/kg/injection, schedule: Q01DX Z (ip), vehicle: water
  T/C: 149 % of control
dose: 600.0 mg/kg/injection, schedule: Q02DX005 (ip), vehicle: water
  survivor count: 1 of 6
dose: 700.0 mg/kg/injection, schedule: Q01DX015 (ip), vehicle: water
  T/C: 144 % of control
dose: 750.0 mg/kg/injection, schedule: Q01DX009 (im), vehicle: water
  survivor count: 4 of 6
dose: 750.0 mg/kg/injection, schedule: Q01DX009 (sc), vehicle: water
  survivor count: 2 of 6
[4]
  T/C: 134, 138 [5 of 6 alive], 140, 182 % of control
  survivor count: 4 of 6
dose: 800.0 mg/kg/injection, schedule: Q01DX005 (ip), vehicle: water
  survivor count: 0 of 6
[5]
  T/C: 98 [5 of 6 alive], 152 [5 of 6 alive], 172 % of control
  survivor count: 0 of 6
dose: 800.0 mg/kg/injection, schedule: Q01DX015 (ip), vehicle: water
  survivor count: 3 of 6
dose: 800.0 mg/kg/injection, schedule: Q02DX005 (ip), vehicle: water
  survivor count: 0 of 6
dose: 800.0 mg/kg/injection, schedule: Q02DX Z (ip), vehicle: water
  T/C: 134 % of control [5 of 6 alive]
dose: 800.0 mg/kg/injection, schedule: Q04DX003 (ip), vehicle: water
  survivor count: 5 of 6
dose: 900.0 mg/kg/injection, schedule: Q01DX015 (ip), vehicle: water
  survivor count: 0 of 6
dose: 1000.0 mg/kg/injection, schedule: Q01DX001 (ip), vehicle: water
  survivor count: 0 of 6 and 1 of 4
dose: 1000.0 mg/kg/injection, schedule: Q01DX009 (im), vehicle: water
  survivor count: 1 of 6
dose: 1000.0 mg/kg/injection, schedule: Q01DX009 (sc), vehicle: water
  survivor count: 2 of 6
dose: 1250.0 mg/kg/injection, schedule: Q01DX015 (im), vehicle: water
  survivor count: 3 of 6
dose: 1400.0 mg/kg/injection, schedule: Q03DX005 (ip), vehicle: water
  survivor count: 3 of 6
dose: 1500.0 mg/kg/injection, schedule: Q01DX001 (ip), vehicle: water
  survivor count: 0 of 4
dose: 1500.0 mg/kg/injection, schedule: Q01DX015 (oral), vehicle: water
  survivor count: 3 of 6
dose: 2000.0 mg/kg/injection, schedule: Q01DX001 (ip), vehicle: water
  survivor count: 0 of 4
dose: 2000.0 mg/kg/injection, schedule: Q01DX015 (oral), vehicle: water
  survivor count: 0 of 6

## C#CC[N+]1(C)CCC=C(C(=O)OC)C1 (stereo unspecified)
dose: 100.0 mg/kg/injection, schedule: Q01DX009 (ip), vehicle: saline
  survivor count: 2 of 6
dose: 200.0 mg/kg/injection, schedule: Q01DX009 (ip), vehicle: saline
  survivor count: 0 of 6
dose: 400.0 mg/kg/injection, schedule: Q01DX009 (ip), vehicle: saline
  survivor count: 0 of 6

## CC(C)c1ccccc1NC1=NCCO1
dose: 100.0 mg/kg/injection, schedule: Q01DX009 (ip), vehicle: Klucel (hydroxypropylcellulose) (HPC)
  survivor count: 0 of 3
dose: 200.0 mg/kg/injection, schedule: Q01DX009 (ip), vehicle: Klucel (hydroxypropylcellulose) (HPC)
  survivor count: 0 of 3

## O=C(NCCCCN1CC1)C(=O)Nc1ccccc1
dose: 200.0 mg/kg/injection, schedule: Q04DX003 (ip), vehicle: Klucel (hydroxypropylcellulose) (HPC)
  survivor count: 2 of 6
[6]
  survivor count: 0 of 6

## Cc1cnc2cc(Cl)ccc2n1
[6]
  survivor count: 6 of 6
